Assay results taken from paper PMC12040169 (PLOS Biology, 2025).
This is one part of the list.

test system: T1, CTL2-GFP (C. trachomatis L2/434/Bu, GFP-expressing); set-up: species or system HeLa; Intracellular C. trachomatis growth in HeLa cells, bulk GFP fluorescence relative to DMSO; conditions: bulk GFP, single well; 28.5 h, 10 µM; inhibitor
T1 construct: L2/434/Bu, GFP-expressing

Compound	% of control remaining
O=C(c1nc2ccccc2[nH]1)N1CCc2ccccc2C1 [CBK200341]	82.0422%
c1ccc(C(CCN2CCc3ccccc3C2)c2ccccc2)cc1 [CBK126404]	107.769%
O=C(CN1CCC(NC(=O)c2cccs2)CC1)Nc1cc(F)ccc1F [CBK305997]	90.4195%
C=C(C)Cn1c(Cc2ccccc2)nnc1SCC(C)C [CBK200082]	105.545%
CSCCC(=O)Nc1cccc2[nH]ccc12 [CBK159655]	110.088%
Clc1ccc2c(c1)NC(c1ccco1)N1CCN=C21 (stereo not shown) [CBK284479]	133.83%
COc1cc(NS(=O)(=O)c2cc(C(=O)O)c(Cl)cc2Cl)cc(OC)c1 [CBK113162]	113.049%
c1ccc(CSc2nnc3ccc(-c4ccncc4)nn23)cc1 [CBK287681]	106.534%
CCc1nc2ccc(C(=O)N3CCN(C(C)=O)CC3)cn2c1N(C)Cc1ccc(Cl)cc1 [CBK146718]	106.666%
OCCc1ccc(Nc2cc(-c3ccc4c(c3)OCO4)ncn2)cc1 [CBK090767]	118.141%
CCNC(=S)N[C@H]1CC[C@@]2(Cc3ccccc3Cl)CCN(C)[C@H]2C1 [CBK003708]	116.438%
O=C(O)c1ccc(NC(=O)c2cccc(-n3cnnc3)c2)cc1 [CBK270134]	116.037%
CCn1nc(C)c(-c2cncn2CCCC(C)(C)CO)c1C [CBK281807]	110.845%
c1ccc(C(Oc2nccnc2-c2ccsc2)c2ccccc2)cc1 [CBK106765]	145.514%
CC(C)CC(=O)N1CCN(Cc2nc3sc4c(c3c(=O)[nH]2)CCC4)CC1 [CBK305014]	117.748%
Cn1c(=O)[nH]c(=O)c2cnc(-c3ccc(Cl)cc3)nc21 [CBK291208]	94.8186%
COc1cc(NC(=O)c2nn3c(c2Br)NC(c2cccs2)CC3C(F)(F)F)c(OC)cc1Cl (stereo not shown) [CBK263573]	100%
CSc1[nH]nc(-c2ccc(C(C)(C)C)cc2)c1C#N [CBK016999]	96.6255%
CC(=O)N1CCc2nc(C)nc(NCCn3cccc3)c2CC1 [CBK307130]	128.689%
COc1ccc(/C=C2\SC(Nc3ccc(Cl)c(C(=O)O)c3)=NC2=O)cc1C [CBK067743]	108.177%
O=C(Cc1ccccc1)N1CCN(S(=O)(=O)N2CCOCC2)CC1 [CBK268857]	145.951%
COc1ccc(NC(=O)c2c[nH]c3nc(C)ccc3c2=O)cc1 [CBK287816]	141.608%
CS(=O)(=O)NC1CCCN(c2nc(-c3ccsc3)nc3ccccc23)C1 (stereo not shown) [CBK305623]	142.76%
CCOC(=O)c1c(NC(=O)CN2CC(C)OC(C)C2)sc2c1CCC(C)C2 (stereo not shown) [CBK264572]	109.634%
Cc1c(C(=O)NCC[S+](C)[O-])oc2c(C)cccc12 (stereo not shown) [CBK282511]	118.789%

Compound	% of control remaining
COc1ccc(C(=O)COC(=O)c2cccc(N3C(=O)C4C5C=C(C)C(C5)C4C3=O)c2)cc1 (stereo not shown) [CBK264808]	129.852%
Cc1cc(=O)oc2cc(NC(=S)NNC(=O)C(C)Oc3ccc4c(c3)CCC4)ccc12 (stereo not shown) [CBK267031]	195.669%
CN(CCc1ccccn1)C(=O)C1CN(C(=O)C2CC23CCC3)C1 (stereo not shown) [CBK281969]	112.854%
Cc1ccc(C(=O)O)cc1NC(=O)CSc1nc2scc(C3CC3)c2c(=O)n1-c1ccccc1 [CBK297481]	115.943%
COC(=O)CC1CCC(NC(=O)C(F)(F)F)CC1 (stereo not shown) [CBK009129]	135.661%
CSc1nnc(CCCNc2cccc(C#N)n2)n1CC(C)C [CBK306449]	132.123%
Cc1ccc(C2CCCN2C(=O)Cn2cc(C(=O)NCc3ccccc3)ccc2=O)cc1C (stereo not shown) [CBK286051]	115.581%
CCOC(=O)C1=C(c2ccccc2)Nc2ncnn2C1c1cccc(OC)c1OC (stereo not shown) [CBK266353]	150.309%
NS(=O)(=O)c1ccc(CNC2CC(=O)N(CCc3ccccc3)C2=O)cc1 (stereo not shown) [CBK262464]	118.391%
O=C(Cc1nc2ccccc2[nH]1)N1CCOCC1 [CBK019505]	107.447%
O=C(c1ccc(Cl)cc1)N1CCN(C(=O)c2cc(O)nc3ccccc23)CC1 [CBK296666]	113.766%
Cc1c(F)cccc1CN1CCCN(S(=O)(=O)c2ccc(-c3ccccc3)cc2)CC1 [CBK062977]	92.3034%
COc1ccc(NC(=O)c2ccc(N3CCN(Cc4ccccc4)CC3)c([N+](=O)[O-])c2)cc1 [CBK263260]	96.5218%
Cc1ccc(OCc2nnc(SCc3cccc(C#N)c3)n2Cc2ccccc2)cc1C [CBK266065]	141.549%
CN(C(=O)c1cccnc1)C(CC1CCCCC1)C1CCCCC1 (stereo not shown) [CBK015849]	90.2071%
Cc1ccc(C(=O)NNCc2ccccc2)c(NCc2cccnc2)n1 [CBK076369]	109.321%
CN(Cc1ccc(Br)cc1)C(=O)CNS(=O)(=O)c1cnn(C)c1 [CBK304553]	131.372%
CC(OC(=O)Cc1ccccc1[N+](=O)[O-])c1nnnn1-c1ccccc1 (stereo not shown) [CBK297920]	122.935%
O=[N+]([O-])c1ccc(N2CCN(Cc3c(O)ccc4ccccc34)CC2)cc1NCc1ccccc1 [CBK268408]	88.1895%
CCNC(=O)N1C[C@@H]2OCC(=O)N(Cc3cccnc3)[C@@H]2C1 [CBK289682]	109.468%
O=C(Nc1ccncc1)c1ccc(CNS(=O)(=O)c2cccc(C(F)(F)F)c2)cc1 [CBK267181]	175.36%
Cc1ccc2nc(-c3ccncc3)cc(C(=O)N3CCN(C4CCCCC4)CC3)c2c1 [CBK267736]	139.478%
CC(C)(C)OC(=O)NCc1ccc2cccc(OCCO)c2n1 [CBK000585]	100%
Cc1c(C(C)NCC(O)c2ccco2)cnn1-c1ccc(C#N)cc1 (stereo not shown) [CBK306462]	116.252%

Some of these compounds in order of heavy-atom count, low to high:
Compound	% of control remaining
O=C(Nc1ccncc1)c1ccc(CNS(=O)(=O)c2cccc(C(F)(F)F)c2)cc1 [CBK267181]	175.36%
Cc1c(F)cccc1CN1CCCN(S(=O)(=O)c2ccc(-c3ccccc3)cc2)CC1 [CBK062977]	92.3034%
Cc1ccc(OCc2nnc(SCc3cccc(C#N)c3)n2Cc2ccccc2)cc1C [CBK266065]	141.549%
